Assay results taken from patent US20250376501A1.
No constants are given. Whether binding was seen depends on the method and setting. Some binding calls cover weakened binding; strength is not graded here. Sequences can lack the tags named with a protein.

Sequences of proteins named here, by UniProt entry; tags and fusion partners are left off. A change or cut given only in a name is not applied to a line headed by its entry.
UniProt Q969D9: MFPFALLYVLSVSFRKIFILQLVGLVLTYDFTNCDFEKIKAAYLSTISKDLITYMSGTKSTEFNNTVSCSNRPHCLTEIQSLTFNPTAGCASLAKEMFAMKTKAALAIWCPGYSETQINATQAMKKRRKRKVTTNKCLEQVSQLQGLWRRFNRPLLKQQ

Target: hTSLP-mFc recombinant protein (ACROBiosystems, Cat. No. TSP-H5255) (human) (UniProt Q969D9)
Assay: ELISA, hTSLP-mFc coated at 50 ng/well, anti-His HRP, OD450

binding: binds
B1: TSLPR-his (Novoprotein Scientific Inc., Cat. No. CW75) (receptor, UniProt Q9HC73 23-231, looked up, not shown: small tags and cut ends)
chain: QGGAAEGVQIQIIYFNLETVQVTWNASKYSRTNLTFHYRFNGDEAYDQCTNYLLQEGHTSGCLLDAEQRDDILYFSIRNGTHPVFTASRWMVYYLKPSSPKHVRFSWHQDAVTVTCSDLSYGDLLYEVQYRSPFDTEWQSKQENTCNVTIEGLDAEKCYSFWVRVKAMEDVYGPDTYPSDWSEVTCWQRGEIRDACAETPTPPKPKLSK
